According to the supplement of paper PMC4604168 (melanoma cell lines):
The list shows a part of the results. Single values are uncertain, as repeats are few or missing.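 Imaging used 1,536-well plates; nuclei positive for cleaved PARP by antibody were divided by total DNA-stained nuclei to yield the apoptosis fraction. Doses for screening kept most cells viable, and cell lines differ markedly in resting and induced cleaved-PARP levels.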

Assays:
Experiment in all cases: cleaved PARP positive nuclei fraction relative to DMSO control; melanoma cells; higher = more apoptosis
Conditions in all cases: library dose: low library concentration; 72 h
501Mel = test system: 501Mel
A101D = test system: A101D
A2058 = test system: A2058
A375 = test system: A375
C32 = test system: C32
CBRC008 = test system: CBRC008 (line from a melanoma biopsy)
CBRC014 = test system: CBRC014 (line from a melanoma biopsy)
CBRC016 = test system: CBRC016 (line from a melanoma biopsy)
CBRC017 = test system: CBRC017 (line from a melanoma biopsy)
CBRC034 = test system: CBRC034 (line from a melanoma biopsy)
COLO792 = test system: COLO792
COLO800 = test system: COLO800
COLO829 = test system: COLO829
G361 = test system: G361
IPC-298 = test system: IPC-298
IST-MEL1 = test system: IST-MEL1
LB2518-MEL = test system: LB2518-MEL
LOXIMVI = test system: LOXIMVI
MEL-HO = test system: MEL-HO

| Compound | cleaved PARP positive nuclei fraction (501Mel) [%] | cleaved PARP positive nuclei fraction (A101D) [%] | cleaved PARP positive nuclei fraction (A2058) [%] | cleaved PARP positive nuclei fraction (A375) [%] | cleaved PARP positive nuclei fraction (C32) [%] | cleaved PARP positive nuclei fraction (CBRC008) [%] | cleaved PARP positive nuclei fraction (CBRC014) [%] | cleaved PARP positive nuclei fraction (CBRC016) [%] | cleaved PARP positive nuclei fraction (CBRC017) [%] | cleaved PARP positive nuclei fraction (CBRC034) [%] | cleaved PARP positive nuclei fraction (COLO792) [%] | cleaved PARP positive nuclei fraction (COLO800) [%] | cleaved PARP positive nuclei fraction (COLO829) [%] | cleaved PARP positive nuclei fraction (G361) [%] | cleaved PARP positive nuclei fraction (IPC-298) [%] | cleaved PARP positive nuclei fraction (IST-MEL1) [%] | cleaved PARP positive nuclei fraction (LB2518-MEL) [%] | cleaved PARP positive nuclei fraction (LOXIMVI) [%] | cleaved PARP positive nuclei fraction (MEL-HO) [%] |
| --- | --- | --- | --- | --- | --- | --- | --- | --- | --- | --- | --- | --- | --- | --- | --- | --- | --- | --- | --- |
| Cc1cc(Nc2cc(N3CCN(C)CC3)nc(Sc3ccc(NC(=O)C4CC4)cc3)n2)n[nH]1 [Tozasertib] + CS(=O)(=O)CCNCc1ccc(-c2ccc3ncnc(Nc4ccc(OCc5cccc(F)c5)c(Cl)c4)c3c2)o1 [lapatinib] (first compound 0.006 µM, partner dose 0.8 µM) | 53.1 | 144 | 65.9 | 70.8 | 94.4 | 118 | 95.5 | 147 | 53.1 | 82.1 | 69.8 | 187 | 54.3 | 79.6 | 42.1 | 64.6 | 110 | 147 | 41.7 |
| COc1cc([C@@H]2c3cc4c(cc3[C@@H](O[C@@H]3O[C@@H]5CO[C@@H](C)O[C@H]5[C@H](O)[C@H]3O)[C@H]3COC(=O)[C@H]23)OCO4)cc(OC)c1O [etoposide] + CC1(C)CCC(c2ccc(Cl)cc2)=C(CN2CCN(c3ccc(C(=O)NS(=O)(=O)c4ccc(N[C@H](CCN5CCOCC5)CSc5ccccc5)c(S(=O)(=O)C(F)(F)F)c4)cc3)CC2)C1 [ABT263] (first compound 0.02 µM, partner dose 0.4 µM) | 131 | 89.2 | 84.5 | 283 | 162 | 320 | 519 | 195 | 263 | 112 | 399 | 193 | 50.7 | 222 | 87.2 | 111 | 429 | 195 | 83.3 |
| CCCCCCCCCCCCCCCCCCOP(=O)([O-])OC1CC[N+](C)(C)CC1 [Perifosine] + CS(=O)(=O)c1ccc(C(=O)Nc2ccc(Cl)c(-c3ccccn3)c2)c(Cl)c1 [vismodegib] (first compound 0.4 µM, partner dose 1 µM) | 76.5 | 54.4 | 305 | 96.1 | 82 | 60.6 | 108 | 83.2 | 127 | 69.7 | 66 | 128 | 82.9 | 138 | 3490 | 91.2 | 64.7 | 131 | 27.3 |
| O=c1[nH]nc(Sc2ncc([N+](=O)[O-])s2)n1-c1ccc2c(c1)OCCO2 + C[C@@H](N)c1ccc(C(=O)Nc2ccnc3[nH]ccc23)cc1 [RKI983] (first compound 0.2 µM, partner dose 0.4 µM) | 41.9 | 95.2 | 170 | 97.9 | 99.2 | 142 | 138 | 166 | 169 | 58.8 | 148 | 63.7 | 222 | 199 | 45.3 | 67 | 273 | 177 | 109 |
| Cc1ccc(Nc2nccc(N(C)c3ccc4c(C)n(C)nc4c3)n2)cc1S(N)(=O)=O [Pazopanib] + NC1(c2ccc(-c3nc4ccn5c(=O)[nH]nc5c4cc3-c3ccccc3)cc2)CCC1 [MK2206] (first compound 0.4 µM, partner dose 0.4 µM) | 128 | 198 | 70.6 | 152 | 74.5 | 85.7 | 92.9 | 117 | 101 | 135 | 117 | 119 | 83.8 | 197 | 72.8 | 88.8 | 92 | 50.7 | 107 |
| CCCCCCCCCCCCCCCCCCOP(=O)([O-])OC1CC[N+](C)(C)CC1 [Perifosine] + CC(C)C[C@H](NC(=O)[C@H](Cc1ccccc1)NC(=O)c1cnccn1)B(O)O [Bortezomib] (first compound 0.4 µM, partner dose 0.001 µM) | 722 | 224 | 335 | 2010 | 97.7 | 233 | 211 | 115 | 155 | 70.6 | 171 | 21.8 | 11.9 | 457 | 66.1 | 386 | 130 | 34.5 | 115 |
| Cc1cn(-c2cc(NC(=O)c3ccc(C)c(Nc4nccc(-c5cccnc5)n4)c3)cc(C(F)(F)F)c2)cn1 [nilotinib] + Cn1cnc2c(F)c(Nc3ccc(Br)cc3Cl)c(C(=O)NOCCO)cc21 [selumetinib] (first compound 0.2 µM, partner dose 0.015 µM) | 155 | 47.3 | 81 | 135 | 75.4 | 193 | 90.5 | 149 | 123 | 69.2 | 67.9 | 115 | 70.5 | 136 | 91.2 | 56.5 | 62.4 | 39.6 | 50.2 |
| Cc1cn(-c2cc(NC(=O)c3ccc(C)c(Nc4nccc(-c5cccnc5)n4)c3)cc(C(F)(F)F)c2)cn1 [nilotinib] + Cn1c(Nc2ccc(C(F)(F)F)cc2)nc2cc(Oc3ccnc(-c4ncc(C(F)(F)F)[nH]4)c3)ccc21 [CHIR265] (first compound 0.2 µM, partner dose 0.08 µM) | 118 | 211 | 109 | 168 | 74 | 44.8 | 106 | 109 | 101 | 75.1 | 116 | 92.6 | 95.1 | 163 | 186 | 98 | 327 | 252 | 30.6 |
| COc1cc([C@@H]2c3cc4c(cc3[C@@H](O[C@@H]3O[C@@H]5CO[C@@H](C)O[C@H]5[C@H](O)[C@H]3O)[C@H]3COC(=O)[C@H]23)OCO4)cc(OC)c1O [etoposide] + CCCCCCCCc1ccc(CCC(N)(CO)CO)cc1 [fingolimod] (first compound 0.02 µM, partner dose 2 µM) | 105 | 97.8 | 41.4 | 440 | 78.7 | 42.6 | 81.7 | 130 | 176 | 139 | 61.6 | 169 | 63.9 | 97.6 | 48.4 | 130 | 52.8 | 225 | 43.5 |
| Cc1ccc(Nc2nccc(N(C)c3ccc4c(C)n(C)nc4c3)n2)cc1S(N)(=O)=O [Pazopanib] + Nc1ccn([C@@H]2O[C@H](CO)[C@@H](O)C2(F)F)c(=O)n1 [gemcitabine] (first compound 0.4 µM, partner dose 0.0004 µM) | 76.7 | 48.5 | 38.6 | 145 | 65.2 | 221 | 118 | 124 | 106 | 72.3 | 105 | 10.5 | 113 | 111 | 54.4 | 61 | 53.8 | 39.1 | 65.4 |
| Cc1cn(-c2cc(NC(=O)c3ccc(C)c(Nc4nccc(-c5cccnc5)n4)c3)cc(C(F)(F)F)c2)cn1 [nilotinib] + CC(=O)O[C@@]12CO[C@@H]1C[C@H](O)[C@@]1(C)C(=O)[C@H](O)C3=C(C)[C@@H](OC(=O)[C@H](O)[C@@H](NC(=O)OC(C)(C)C)c4ccccc4)C[C@@](O)([C@@H](OC(=O)c4ccccc4)[C@H]21)C3(C)C [Docetaxel] (first compound 0.2 µM, partner dose 0.0001 µM) | 156 | 92.5 | 1150 | 3440 | 87.8 | 818 | 123 | 322 | 189 | 53.8 | 260 | 321 | 215 | 464 | 182 | 70.9 | 117 | 105 | 287 |
| COc1cc([C@@H]2c3cc4c(cc3[C@@H](O[C@@H]3O[C@@H]5CO[C@@H](C)O[C@H]5[C@H](O)[C@H]3O)[C@H]3COC(=O)[C@H]23)OCO4)cc(OC)c1O [etoposide] + O=c1[nH]nc(Sc2ncc([N+](=O)[O-])s2)n1-c1ccc2c(c1)OCCO2 [BI78D3] (first compound 0.02 µM, partner dose 0.2 µM) | 49.3 | 45.1 | 266 | 199 | 78.6 | 206 | 98.1 | 185 | 112 | 122 | 171 | 143 | 120 | 80 | 131 | 61 | 133 | 128 | 44.5 |
| COc1cc([C@@H]2c3cc4c(cc3[C@@H](O[C@@H]3O[C@@H]5CO[C@@H](C)O[C@H]5[C@H](O)[C@H]3O)[C@H]3COC(=O)[C@H]23)OCO4)cc(OC)c1O [etoposide] + CCN(CC)CCNC(=O)c1c(C)[nH]c(/C=C2\C(=O)Nc3ccc(F)cc32)c1C [sunitinib] (first compound 0.02 µM, partner dose 0.4 µM) | 67.4 | 44.2 | 168 | 233 | 74 | 46.9 | 89.3 | 44.6 | 69.6 | 117 | 99.9 | 76 | 129 | 101 | 150 | 63 | 46.5 | 174 | 26.6 |
| CCCCCCCCCCCCCCCCCCOP(=O)([O-])OC1CC[N+](C)(C)CC1 [Perifosine] + C[C@]1(c2nc3c(C(N)=O)cccc3[nH]2)CCCN1 [Veliparib] (first compound 0.4 µM, partner dose 1.4 µM) | 118 | 46.9 | 46.7 | 531 | 78.5 | 95.2 | 113 | 117 | 140 | 152 | 203 | 125 | 69.4 | 143 | 94.1 | 127 | 148 | 164 | 277 |
| Cc1cc(Nc2cc(N3CCN(C)CC3)nc(Sc3ccc(NC(=O)C4CC4)cc3)n2)n[nH]1 [Tozasertib] + OCc1c[nH]c2ccccc12 [Indole-3-carbinol] (first compound 0.006 µM, partner dose 0.8 µM) | 289 | 71 | 83.5 | 53.5 | 83.4 | 172 | 96.8 | 59.7 | 54.3 | 101 | 42.7 | 208 | 119 | 61.6 | 84.6 | 113 | 62.7 | 158 | 47.7 |
| O=c1[nH]nc(Sc2ncc([N+](=O)[O-])s2)n1-c1ccc2c(c1)OCCO2 + C[C@]1(O)C[C@@H](c2nc(-c3ccc4ccc(-c5ccccc5)nc4c3)c3c(N)nccn32)C1 [OSI906] (first compound 0.2 µM, partner dose 0.4 µM) | 108 | 84.4 | 60.4 | 485 | 85.6 | 86.8 | 99 | 154 | 128 | 133 | 112 | 87 | 143 | 150 | 182 | 63.3 | 217 | 137 | 83.3 |

In a second layout: entries from further up
Compound | cleaved PARP positive nuclei fraction (501Mel) [%] | cleaved PARP positive nuclei fraction (A101D) [%] | cleaved PARP positive nuclei fraction (A2058) [%] | cleaved PARP positive nuclei fraction (A375) [%] | cleaved PARP positive nuclei fraction (C32) [%] | cleaved PARP positive nuclei fraction (CBRC008) [%] | cleaved PARP positive nuclei fraction (CBRC014) [%] | cleaved PARP positive nuclei fraction (CBRC016) [%] | cleaved PARP positive nuclei fraction (CBRC017) [%] | cleaved PARP positive nuclei fraction (CBRC034) [%] | cleaved PARP positive nuclei fraction (COLO792) [%] | cleaved PARP positive nuclei fraction (COLO800) [%] | cleaved PARP positive nuclei fraction (COLO829) [%] | cleaved PARP positive nuclei fraction (G361) [%] | cleaved PARP positive nuclei fraction (IPC-298) [%] | cleaved PARP positive nuclei fraction (IST-MEL1) [%] | cleaved PARP positive nuclei fraction (LB2518-MEL) [%] | cleaved PARP positive nuclei fraction (LOXIMVI) [%] | cleaved PARP positive nuclei fraction (MEL-HO) [%]
COc1cc([C@@H]2c3cc4c(cc3[C@@H](O[C@@H]3O[C@@H]5CO[C@@H](C)O[C@H]5[C@H](O)[C@H]3O)[C@H]3COC(=O)[C@H]23)OCO4)cc(OC)c1O [etoposide] + CC1(C)CCC(c2ccc(Cl)cc2)=C(CN2CCN(c3ccc(C(=O)NS(=O)(=O)c4ccc(N[C@H](CCN5CCOCC5)CSc5ccccc5)c(S(=O)(=O)C(F)(F)F)c4)cc3)CC2)C1 [ABT263] (first compound 0.02 µM, partner dose 0.4 µM) | 131 | 89.2 | 84.5 | 283 | 162 | 320 | 519 | 195 | 263 | 112 | 399 | 193 | 50.7 | 222 | 87.2 | 111 | 429 | 195 | 83.3
Cc1cn(-c2cc(NC(=O)c3ccc(C)c(Nc4nccc(-c5cccnc5)n4)c3)cc(C(F)(F)F)c2)cn1 [nilotinib] + CC(=O)O[C@@]12CO[C@@H]1C[C@H](O)[C@@]1(C)C(=O)[C@H](O)C3=C(C)[C@@H](OC(=O)[C@H](O)[C@@H](NC(=O)OC(C)(C)C)c4ccccc4)C[C@@](O)([C@@H](OC(=O)c4ccccc4)[C@H]21)C3(C)C [Docetaxel] (first compound 0.2 µM, partner dose 0.0001 µM) | 156 | 92.5 | 1150 | 3440 | 87.8 | 818 | 123 | 322 | 189 | 53.8 | 260 | 321 | 215 | 464 | 182 | 70.9 | 117 | 105 | 287
O=c1[nH]nc(Sc2ncc([N+](=O)[O-])s2)n1-c1ccc2c(c1)OCCO2 + C[C@]1(O)C[C@@H](c2nc(-c3ccc4ccc(-c5ccccc5)nc4c3)c3c(N)nccn32)C1 [OSI906] (first compound 0.2 µM, partner dose 0.4 µM) | 108 | 84.4 | 60.4 | 485 | 85.6 | 86.8 | 99 | 154 | 128 | 133 | 112 | 87 | 143 | 150 | 182 | 63.3 | 217 | 137 | 83.3
